Results deposited as PubChem BioAssay AID1224826 (NIAID, 2016)
The deposit covers about 17,000 reagents; this is a part drawn at random. In the full data, about 1,110 (6.6%) are marked active. 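Active means lowered or raised reporter signal; replicate intensities are raw and not normalised per plate.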 A number with no mark means an inactive call.

- Screen: 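Regulators of Tlr4 signalling leading to Tnf-alpha expression in macrophages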 (primary screen)
- Cell system: RAW264.7 G9 macrophages from mouse bearing reporters for p65 (GFP) and the Tnf promoter (mCherry)
- Knock-down reagent: siRNA pool against mouse genes, 100 nM
- Timing: 16 h of LPS stimulation, after 2 days of siRNA transfection
- Treatment: bacterial lipopolysaccharide (Salmonella minnesota R595), 10 ng/ml
- Measured: 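Nuclear mCherry signal of the Tnf promoter reporter measured by imaging after background removal, scaled to each plate median and turned into robust z-scores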
- Scale: Tnf reporter robust z-score: higher = stronger Tnf promoter reporter signal after LPS; Tnf reporter intensity: higher = stronger Tnf promoter reporter signal
- Hit rule: 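a well counts as active at a score of -1.3 or below (Tlr4 knock-down control median) or above 3 (raised signal); controls and wells holding fewer than 50 cells are excluded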
- Meaning of the calls: active = Tnf reporter clearly lowered or raised; inactive = no clear change in Tnf reporter

gene | Tnf reporter robust z-score | fewer than 50 cells in well | Tnf reporter intensity, replicate 1 | Tnf reporter intensity, replicate 2
Tfdp2 (transcription factor Dp 2) | 0.11 | enough cells in well | 149 | 180
Nudt9 (nudix hydrolase 9) | -0.53 | enough cells in well | 182 | 101
Dennd2c (DENN domain containing 2C) | 0.11 | enough cells in well | 145 | 195
Fadd (Fas associated via death domain) | 1.08 | enough cells in well | 348 | 276
Sts (steroid sulfatase) | -0.38 | enough cells in well | 79.6 | 93.8
Seh1l (SEH1-like (S. cerevisiae) | 0.88 | enough cells in well | 291 | 101
4930515G01Rik (RIKEN cDNA 4930515G01 gene) | -0.93 | enough cells in well | 111 | 44.8
Pgap2 (post-GPI attachment to proteins 2) | – | fewer than 50 cells per well; well left out of calls | 78.4 | 63.9
Pum2 (pumilio RNA-binding family member 2) | -0.42 | enough cells in well | 125 | 97.5
Nphp1 (nephronophthisis 1 (juvenile) homolog (human)) | 0.09 | enough cells in well | 204 | 222
Adam24 (ADAM metallopeptidase domain 24) | 0.45 | enough cells in well | 272 | 182
Cdca7 (cell division cycle associated 7) | 0.4 | enough cells in well | 190 | 195
Psmd12 (proteasome (prosome, macropain) 26S subunit, non-ATPase, 12) | – | fewer than 50 cells per well; well left out of calls | 206 | 273
Or7d10 (olfactory receptor family 7 subfamily D member 10) | – | fewer than 50 cells per well; well left out of calls | 85.1 | 76.4
Ctsh (cathepsin H) | 0.13 | enough cells in well | 258 | 200
Usp2 (ubiquitin specific peptidase 2) | 0.16 | enough cells in well | 239 | 247
Vmn1r80 (vomeronasal 1 receptor 80) | -0.91 | enough cells in well | 83.8 | 82.5
Pcdhb21 (protocadherin beta 21) | 0.7 | enough cells in well | 172 | 174
Gpn1 (GPN-loop GTPase 1) | 0.85 | enough cells in well | 121 | 205
Asb15 (ankyrin repeat and SOCS box-containing 15) | -0.77 | enough cells in well | 146 | 103
Dipk1b (divergent protein kinase domain 1B) | 0.01 | enough cells in well | 230 | 109
Akr1b10 (aldo-keto reductase family 1, member B10) | 2.72 | enough cells in well | 291 | 74.3
Hoxc8 (homeobox C8) | -1.01 | enough cells in well | 153 | 114
Adcyap1r1 (adenylate cyclase activating polypeptide 1 receptor 1) | 0.68 | enough cells in well | 255 | 381
